Laboratory results reported in US20060159669A1, “Novel uses of PPAR modulators and professional APCs manipulated by the same” (priority 2003, published 2006).
At least one compound was matched to its structure with a doubt left.

What was measured:
Type in all cases: cell-based, human
[1] = tested on: alloreactive T lymphocytes; assay: Mixed leukocyte reaction of MDC with allogeneic PBMC
[2] = tested on: CD1d; assay: CD1d transcript level in cultured peripheral blood myeloid DCs (RT-PCR); conditions: blood myeloid DCs cultured 2 days; 2.5 microM RSG
[3] = tested on: iNKT cells; assay: Expansion of iNKT cells by alpha-GalCer pulsed DC in autologous PBMC coculture; conditions: RSG treated IDCs as stimulators
Experimental: FACS analysis. Cell staining was performed using alpha-GalCer-loaded APC-labeled CD1d-tetramer (kindly provided by A. Herbelin) and FITC-, Cyc- or PE-conjugated mAbs. Labeled antibodies for flow cytometry included anti-CD161-Cyc, CD8-PE, CD25-PE, CD1a-PE, CD1d-PE, CD86-PE, CD83-PE, CD206-PE, CD3- FITC, CD36-FITC, CD80-FITC, CD209-FITC, HLA-DR-FITC and isotype-matched controls (BD PharMingen), anti-Vbetal 1-PE and anti-Valpha24-FITC (Immunotech). The cells were assessed for fluorescence intensity using EPICS Elite flow cytometer (Beckman Coulter) or with FACS Calibur cytometer (Beckton Dickinson). Data analysis was performed using WinMDI software (Joseph Trotter, The Scripps Research Institute, La Jolla, Calif.).
Expansion of iNKT cells. IDCs were treated with or without the inflammatory mixture as described previously and with 100ng/ml alpha-GalCer for 24 hr to obtain alpha-GalCer-loaded MDC or IDC, respectively. alpha-GalCer pulsed IDCs or MDCs (2×10^5 cells/ml) were cocultured with 2×10^6 monocyte depleted autologous PBMC for 5 days in 24 well plates. The expansion of iNKT cells was monitored by quantifying Valpha24+ Vbetal 1+ and Valpha24+ CD161+ cells by FACS analysis. The specificity of CD1d-restricted NKT cells was also verified by alpha-GalCer loaded APC-labelled CD1d tetramer staining.

[4] = tested on: IL-10, IL-12; assay: Cytokine pattern of NKT cells or autologous T-lymphocytes activated in the presence of untreated or RSG-treated DC; conditions: RSG-treated maturing DC; FIG. 8
[5] = tested on: CD1d; assay: CD1d mRNA expression (RT-PCR, Affymetrix microarray) in monocyte-derived DC; conditions: IDC, 2.5 microM RSG
Experimental: DC generation and maturation. Highly enriched monocytes (98% CD14+) were obtained from buffy coats of healthy donors (provided by the local blood center) by Ficoll gradient centrifugation and immunomagnetic cell separation using anti-CD14-conjugated microbeads (VarioMACS; Miltenyi Biotec). Human monocyte-derived IDCs were prepared as described previously (Sallusto and Lanzavecchia, 1994) with minor modification. In brief, monocytes were resuspended into six-well culture dishes at a density of 1.5×10^6 cells/ml and cultured in RPMI 1640 supplemented with 10% FBS (Invitrogen), containing 800 U/ml GM-CSF (Leucomax) and 500 U/ml IL-4 (Peprotech). Cells were cultured for 5 or 6 days and the IL-4 and GM-CSF addition was repeated at day 2 to obtain a population of immature DCs. In some experiments FBS was replaced with human AB serum (Sigma). To obtain MDCs, IDCs were treated with a mixture of cytokines: 10 ng/ml TNF-alpha (Peprotech), 10 ng/ml IL-1beta (Peprotech), 1000 U/ml IL-6 (Peprotech), 1 microg/ml PGE2 (Sigma) and 800 U/ml GM-CSF for 24 hr (Jonuleit et al., 1997).
Ligands or vehicle control (50% DMSO/ethanol) were added to the cell culture starting from the first day.
Microarray experiment. […]

[6] = tested on: group I CD1s (CD1a, CD1b, CD1c and CD1e); assay: Group I CD1 mRNA expression (Affymetrix microarray, RT-PCR) in monocyte-derived DC
[7] = tested on: IFNg; assay: IFNg production in Mixed Leukocyte Reaction by ELISA; conditions: 2.5 microM RSG treatment of differentiating DCs; 1:10 DC-T cell ratio; day 5
[8] = tested on: immature DCs; assay: Endocytosis (FITC-dextran) and phagocytosis (latex beads) of immature DCs; conditions: IDC, 2.5 microM RSG

In the case of CN(CCOc1ccc(CC2SC(=O)NC2=O)cc1)c1ccccn1 (stereo not shown) [RSG, Rosiglitazone], the “Activation of allogeneic T lymphocytes (CD25)” value ([1]; 2.5 microM RSG treatment of differentiating DCs, 1:10 DC-T cell ratio, day 5, FACS) is reported as “did not impair”, the “Stimulatory capacity for proliferative responses of alloreactive T lymphocytes ([3H]-thymidine)” value ([1]; MDC treated with 2.5 microM RSG, DC:T ratios 1:10 to 1:640, 5 days) is reported as “comparable to that of control MDC” and the CD1d expression [2] is reported as “increased expression of CD1d”. For the same compound, the “Number of CD1d tetramer positive cells” value [3] was “increased”, the IL-10 production [4] was “high” and the IL-12 production [4] was “low”. For the same compound, the “CD1d mRNA expression” value ([5]; Affymetrix microarray, confirmed by RT-PCR) was “retained CD1d expression”, the “Induction of CD1d by receptor-specific agonists” value ([5]; 200 nM GW7845, 1 microM GW501516, 20 microM WY14643, 1 microM T0901317, FIG. 5B) was “turn on gene expression” and the “mRNA levels of group I CD1s (CD1a, CD1b, CD1c, CD1e)” value ([6]; IDC, 2.5 microM RSG, Affymetrix microarray) was “much lower”. The “mRNA level of CD1a” value ([6]; ligand treated cells vs control cells) was “lower than in control cells”, the “IFNg production of allogeneic PBMC” value [7] was “did not impair” and the “Uptake of latex beads (phagocytosis)” value ([8]; 24h incubation) was “enhanced the uptake of latex beads”. For the same compound, the FITC-dextran dependent endocytosis ([8]; mannose receptor mediated) was “did not influence”.
